Source: PubChem BioAssay AID2685 (National Center for Advancing Translational Sciences (NCATS), 2010)
Among all 320,000 compounds or so, about 2,100 (0.66%) were called active. Inconclusive results, whose numbers are uncertain, are shown with a selection of clear calls. Calls follow the shape of the dose curve; as a rule, active = well fitted inhibition curve with a large enough effect in the signal ratio, with a control signal flat (not every such curve was filed as active); inconclusive = small, poorly fitted or top-dose-only effect, or effect the other way, or a change in a side signal; inactive = flat fitted curve, though single readings scatter; the % refers to the signal ratio. Potencies of inconclusive entries are doubtful fits and often do not repeat.

Assay: qHTS Assay for Lipid Storage Modulators in Drosophila S3 Cells
Conditions: BODIPY lipid droplet fluorescence, 18-24 h, cells fed with added oleic acid; lipid storage change, negative = inhibition: at 46.1 µM (top of the series) unless noted
Summary of the method: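 Drosophila S3 cells got compounds at several concentrations plus oleic acid (400 uM solution). Laser-scanning cytometry with 488 nm excitation read lipid droplets at 500-530 nm and cells at 575-640 nm. Percent activity was relative to 20 uM Triacsin C.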
% is scaled to controls: 0 for no effect and ±100 for the full control effect; potency is read from the fitted curve at half-maximal effect.

SMILES | lipid storage change, negative = inhibition | Potency
CC(=O)NNc1[nH]c2c(c(=O)c1[N+](=O)[O-])c(=O)n(C)c(=O)n2C | inactive | 
CCN1C(=O)[C@H]2[C@@H](c3ccc(-c4ccc(C(C)=O)cc4)cc3)N3CCCC[C@@]3(C(=O)OC)[C@H]2C1=O |  | inconclusive: 6.51 µM [falling, single point]
COc1ccccc1N1CCN(C(=O)CSc2nc3ccccc3c(=O)n2CC2CCCO2)CC1 (configuration not stated) | inconclusive: 24% | 
COc1ccc(CCNc2nc(C)c(C(C)=O)s2)cc1OC | inconclusive: -82% | 
O=C(N/N=C/c1cc2c(cc1[N+](=O)[O-])OCO2)c1cccnc1 | inconclusive: 17.7% | 
CCCCOc1ccc(C(O)(CCN2CCOCC2)c2ccccc2)cc1 (configuration not stated) | inactive | 
Cn1c(=O)cc(OCCCC(=O)Nc2ccccn2)c2ccccc21 |  | inconclusive: 20.6 µM [falling, partial curve]
O=C(CCCn1c(=O)[nH]c2cc(Cl)ccc2c1=O)NC1CCCCCC1 |  | inconclusive: 0.184 µM [falling, full curve]
CCSc1nc(C2CC2)cc(-c2ccco2)c1C#N | inconclusive: 155% | 
CN(c1ccccc1)S(=O)(=O)c1cccc(NC(=O)CSc2nncs2)c1 |  | inconclusive: 16.4 µM [falling, single point]
Cc1cc(C)c2nc(SCC(=O)Nc3cc(C)on3)c(C#N)cc2c1 | inconclusive: 20.8% | 
Cn1c(CNc2ccccc2O)nc2ccccc21 | inconclusive: -37.6% | 
O=C(O)CNS(=O)(=O)c1cccc(Cl)c1 | inconclusive: -26.2% | 
O=C(COC(=O)C1CC(=O)N(c2ccccc2)C1)c1ccccc1 (configuration not stated) | inconclusive: -11.2% | 
CCN(CC)C(=O)CN(c1ccc(Cl)cc1)S(=O)(=O)c1ccccc1 | inconclusive: 24.3% | 
CC(C)(C)c1ccc(C(=O)N2CCN(CCNC(=O)C(=O)Nc3ccc(F)cc3)CC2)cc1 | inconclusive: -39.6% | 
O=C(COC(=O)c1ccccc1NC(=O)c1ccco1)NCCC1=CCCCC1 |  | inconclusive: 1.84 µM [activator, partial curve, poor fit]
Cc1[nH]nc2c1C(C(C)C)C(C#N)=C(N)O2 (configuration not stated) |  | inconclusive: 29.1 µM [rising, single point]
CCC(=O)NC(c1cc(Cl)c2ccccc2c1O)C1CC1 (configuration not stated) | inconclusive: 7.33% | 
Cc1oc(-c2cccc(F)c2)nc1CN1CCCCC1CCn1cccn1 (configuration not stated) | inconclusive: 24.4% | 
COc1ccc(NC(=O)C(c2ccccn2)N(C(C)=O)c2ccc(C)cc2)cc1 (configuration not stated) | inconclusive: 18.5% | 
Cc1ccccc1OCc1nnc(SCC(=O)O)n1Cc1ccccc1 | inconclusive: 7.19% | 
N#Cc1c(Cn2cncn2)nc(=O)n(-c2ccc(Cl)cc2)c1N | inconclusive: -14.5% [at 9.22 µM] | 
Cc1cccc(-n2c(N)c(-c3nc4ccccc4n3C)c3nc4ccccc4nc32)c1 |  | inconclusive: 3.66 µM [falling, single point]
COc1ccc(-n2c(C)ccc2-c2ccccc2)cn1 |  | active: 14.6 µM
CCCS(=O)(=O)n1nc(-c2ccc(C)cc2)cc1N | inconclusive: 5.87% | 

Part of the list above, reformatted.
SMILES	lipid storage change, negative = inhibition	Potency
CN(c1ccccc1)S(=O)(=O)c1cccc(NC(=O)CSc2nncs2)c1		inconclusive: 16.4 µM [falling, single point]
Cn1c(CNc2ccccc2O)nc2ccccc21	inconclusive: -37.6%	
O=C(O)CNS(=O)(=O)c1cccc(Cl)c1	inconclusive: -26.2%	
Cc1cccc(-n2c(N)c(-c3nc4ccccc4n3C)c3nc4ccccc4nc32)c1		inconclusive: 3.66 µM [falling, single point]

(list continues)

SMILES | lipid storage change, negative = inhibition | Potency
Cc1nnc(SC(C)C(=O)Nc2c(C)n(C)n(-c3ccccc3)c2=O)n1N (configuration not stated) | inconclusive: 1.55% | 
Cc1ccc(NCC(=O)NNC2=NCCC2)c(C)c1 |  | inconclusive: 0.164 µM [falling, full curve, poor fit]
COC(=O)c1cc(Br)c(N)cc1OC | inconclusive: -34.2% [cytotoxic] [at 0.00295 µM] | 
Cc1ccc(COc2ccccc2C(=S)N2CCCC2)cc1 | inconclusive: 10.6% | 
COc1cccc(-n2nnnc2SCC(=O)NC2CCCC2)c1 | inconclusive: 15.5% | 
N#CC1=C(N)Oc2[nH]c(=S)[nH]c(=O)c2C12C(=O)Nc1ccccc12 (configuration not stated) |  | inconclusive: 29.1 µM [falling, single point]
COc1ccccc1N(C)S(=O)(=O)c1ccc(C(=O)Nc2nc(C)c(C(C)=O)s2)cc1 | inconclusive: -14.3% | 
CC1=Nc2cc(C(=O)NCCCN3CCN(C)CC3)ccc2Sc2ccc(C)cc21 | inconclusive: -43.9% | 
CN1C(=O)N(c2ccccc2)C(Nc2nncs2)C1(C)C (configuration not stated) | inconclusive: 11.6% | 
Cc1cc([N+](=O)[O-])c(C)cc1-c1ccc(/C=N/n2cnnc2)o1 | inconclusive: -11.3% | 
COc1ccc(OC)c(CCNC(=O)CCCc2nnc3n(C)c(=O)c4sccc4n23)c1 |  | active: 7.31 µM
O=c1c(Cl)c(N/N=C/c2ccc(Cl)cc2)cnn1-c1ccccc1 |  | inconclusive: 29.1 µM [cytotoxic, single point]
O=C(NCc1cccc2ccsc12)c1cccs1 | inconclusive: 16.4% | 
COc1cc(/C=C/C(=O)Nc2cccnc2)cc(OC)c1OC | inconclusive: -59.6% | 
COc1ccccc1CNC(c1ccccc1)c1ccccc1 | inconclusive: 58.1% | 
C/C(=N\NC(=O)COc1ccc(C)cc1Br)c1cc([N+](=O)[O-])cs1 | inconclusive: -39.9% | 
CCSc1nnc(NC(=O)c2nc(-c3ccccc3)n(-c3ccccc3)n2)s1 |  | inconclusive: 23.1 µM [falling, single point]
c1csc(-c2nc(N3CCCCC3)no2)c1 |  | inconclusive: 2.59 µM [falling, single point]
CC(C)n1c(SCC(=O)Nc2ccc(N3CCOCC3)cc2)nnc1-c1ccco1 |  | inconclusive: 0.206 µM [activator, single point]
COc1ccc2[nH]cc(CCNC(=O)Nc3ccccc3C)c2c1 | inconclusive: -1.3% | 
CCOC(=O)c1[nH]cnc1C(=O)Nc1cccc(Cl)c1 |  | inconclusive: 29.1 µM [falling, single point]
CCOC(=O)Cc1csc(NC(=S)NC(=O)c2ccccc2)n1 |  | inconclusive: 1.84 µM [activator, partial curve, poor fit]
COC(C(=O)Nc1ccnn1C1CCN(Cc2ccc(C)s2)CC1)c1ccccc1 (configuration not stated) | inactive | 
Cc1cc(C)cc(OCCn2nnc3ccccc32)c1 | inconclusive: -53.8% | 
CCOc1ccccc1N1CC(C(=O)NCCOc2ccccc2OC)CC1=O (configuration not stated) | inconclusive: 22.3% | 
CCc1cc2ccc(C)cc2nc1SCC(=O)Nc1cc(C)on1 | inconclusive: 35% | 

SMILES | lipid storage change, negative = inhibition | Potency
Cc1cccc(NS(=O)(=O)c2ccc(C(=O)N3CCCCCC3)cc2)c1C | inconclusive | 
Cn1c(N)c(C(=O)COC(=O)C(Cc2ccccc2)NC(=O)c2ccccc2)c(=O)n(C)c1=O (configuration not stated) | inconclusive: 17.1% | 
Cn1nnnc1SCC(=O)Nc1ccccc1Br | inactive | 
COc1ccc(C)cc1NC(=O)CN(c1ccc(C)cc1)S(C)(=O)=O | inconclusive: -102% | 
CN(CC(=O)Nc1cccc(F)c1)C(=O)c1cn(-c2ccccc2)nc1-c1ccc(Cl)cc1 |  | inconclusive: 23.1 µM [falling, single point]
O=[N+]([O-])c1cccc(CP(=O)(c2ccccc2)c2ccccc2)c1 | inconclusive: -22.9% | 
COc1ccc(CCNC(=O)c2ccc(CS(=O)(=O)c3ccc(C)cc3)o2)cc1OC | inconclusive: -1.32% | 
O=C(O)c1ccc(CNS(=O)(=O)c2ccc(Oc3ccccc3Cl)cc2)cc1 |  | inconclusive: 29.1 µM [activator, single point]
COc1cc(OC)cc(-c2cc3nc(C)c(CCC(=O)O)c(C)n3n2)c1 | inconclusive: -15.2% | 
COc1cccc(NC(=O)C2CCN(C(=O)[C@@H]3Cc4ccccc4CN3)CC2)c1 | inconclusive: 114% | 
Cc1csc(Sc2ccc(S(=O)(=O)N3CCCC3)cn2)n1 |  | inconclusive: 5.17 µM [activator, full curve, poor fit]
CSCCC(NC(=O)c1ccccc1Br)C(=O)N1CCCC(C(F)(F)F)C1 (configuration not stated) | inconclusive: 24.5% | 
CCCCn1nc(C(=O)N(CCOC)c2c(N)n(CCCC)c(=O)[nH]c2=O)c2ccccc2c1=O |  | inconclusive: 7.31 µM [falling, partial curve, poor fit]
CN(C)CCNC(=O)c1c(CSc2ccccc2)noc1C(=O)NCc1ccccc1 | inconclusive: 16.7% | 
CCn1ncc(CN2CCN(Cc3ccc(OC)c(C)c3C)C(CCO)C2)c1C (configuration not stated) | inconclusive: 3.98% | 
CC(=O)N1CCN(C(=O)c2cc3c(s2)CCC(C)C3)CC1 (configuration not stated) | inconclusive: 15% | 
CC(C)(CO)NC(=O)C12CC3CC(CC(Br)(C3)C1)C2 |  | inconclusive: 2.06 µM [falling, partial curve]
COc1ccc(Cl)cc1NC(=O)c1cccnc1 |  | inconclusive: 0.461 µM [activator, single point]
CCCCN(C)C(=O)Cc1c(OC)ccc2cc(Br)ccc12 |  | inconclusive: 9.2 µM [activator, partial curve]
COc1ccccc1C1C=C(c2ccc(C)cc2)Nc2nnnn21 (configuration not stated) |  | inconclusive: 6.51 µM [activator, single point]
COc1cccc(CNC(=O)C2CCCN(C(=O)c3ccc(Cl)cc3)C2)c1 (configuration not stated) | inconclusive: 18.9% | 
COCCCn1c(-c2ccc(OC)cc2)nc2c1c(=O)[nH]c(=O)n2Cc1ccccc1 |  | inconclusive: 6.51 µM [activator, partial curve, poor fit]
C=CCc1c(C)nc(SC)nc1Nc1ccc(C(C)=O)cc1 |  | inconclusive: 18.4 µM [falling, single point]
Cc1cccc(Nc2c([N+](=O)[O-])c(=O)n(C)c3ccccc23)c1 |  | inconclusive: 1.84 µM [activator, full curve, poor fit]
Cc1cccc(C(=O)NC(=S)NCc2cccnc2)c1 |  | inconclusive: 0.116 µM [activator, full curve, poor fit]
